PubChem BioAssay AID1259306, Sanger Institute – 2017

Aim: 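Find kinases whose loss reduces colorectal cancer cell viability or aids targeted drugs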 (primary screen)
Cells: human SNU-C5 colorectal cancer cells
Knock-down reagent: siRNA pool against human genes
Treatment: DMSO vehicle alone, or one anchor drug: BYL719 at 1 µM, cetuximab at 5 µg/ml or trametinib at 10 nM, given 24 h into the assay
Detection: 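Viability versus non-targeting pool averaged across replicates, given as fraction and robust z-score, and synergy scores for BYL719, cetuximab or trametinib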
Direction: robust z-score, knock-down alone and viability, knock-down alone: higher = more viable cells; synergy score with BYL719: higher = stronger synthetic lethality with BYL719; synergy score with cetuximab: higher = stronger synthetic lethality with cetuximab; synergy score with trametinib: higher = stronger synthetic lethality with trametinib
Hit rule: 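Essential if knock-down without drug gives a robust z-score under -3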
Calls: active = essential (knock-down alone); inactive = no change alone
This is a random part of 794 reagents tested. Of all reagents, 11 (1.4%) were called active. 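Calls reflect knock-down alone; synergy scores play no part, so knock-downs synergising with a drug can be called no change.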 No viability above 1 is reported: the scale is capped. Not given: the amount of reagent, the time to read-out.

Target gene	robust z-score, knock-down alone	viability, knock-down alone	synergy score with BYL719	synergy score with cetuximab	synergy score with trametinib	activity call
BCOR	0.93	0.992	0.13	0.114	0.0273	inactive
PIK3R3	0.989	1	0.127	0.155	-0.0846	inactive
ULK2	-0.155	0.842	0.0838	0.16	0.105	inactive
STK10	0.949	0.995	-0.00547	-0.00547	-0.064	inactive
PRKACB	0.695	0.959	-0.0405	-0.0405	-0.0188	inactive
STK38L	-1.52	0.655	-0.00698	-0.0391	-0.0408	inactive
PNKP	0.239	0.897	-0.025	-0.103	-0.0774	inactive
EPHB3	0.109	0.879	-0.00561	-0.121	-0.166	inactive
WIPF1	-2.6	0.505	0.0508	0.0133	-0.159	inactive
PDK2	0.195	0.891	0.0619	0.0139	0.0598	inactive
PIM3	0.677	0.957	-0.043	-0.043	-0.0139	inactive
THNSL1	0.739	0.966	-0.0344	-0.0344	0.00707	inactive
SHPK	0.982	0.999	0.171	0.414	0.0402	inactive
CSNK1A1L	0.989	1	0.229	0.0902	0.0639	inactive
MAP2K5	0.509	0.934	0.0681	-0.0662	-0.0104	inactive
ETNK1	0.528	0.936	0.155	-0.0636	0.0543	inactive
CDK1	0.765	0.969	0.0877	-0.0309	0.121	inactive
PRKAG1	0.529	0.937	0.12	0.0396	-0.00874	inactive
MAST4	0.575	0.943	0.0729	0.0739	-0.0551	inactive
RET	0.989	1	0.228	0	-0.0907	inactive

3 entries already listed, arranged by “synergy score with cetuximab”, lowest first:
Target gene	robust z-score, knock-down alone	viability, knock-down alone	synergy score with BYL719	synergy score with cetuximab	synergy score with trametinib	activity call
ETNK1	0.528	0.936	0.155	-0.0636	0.0543	inactive
CDK1	0.765	0.969	0.0877	-0.0309	0.121	inactive
PRKAG1	0.529	0.937	0.12	0.0396	-0.00874	inactive
